The results in this text go back to PMC11933467.

The target of the assay is T1, CG7611-GFP (Drosophila melanogaster) (UniProt Q7K0L4).
T1 sequence: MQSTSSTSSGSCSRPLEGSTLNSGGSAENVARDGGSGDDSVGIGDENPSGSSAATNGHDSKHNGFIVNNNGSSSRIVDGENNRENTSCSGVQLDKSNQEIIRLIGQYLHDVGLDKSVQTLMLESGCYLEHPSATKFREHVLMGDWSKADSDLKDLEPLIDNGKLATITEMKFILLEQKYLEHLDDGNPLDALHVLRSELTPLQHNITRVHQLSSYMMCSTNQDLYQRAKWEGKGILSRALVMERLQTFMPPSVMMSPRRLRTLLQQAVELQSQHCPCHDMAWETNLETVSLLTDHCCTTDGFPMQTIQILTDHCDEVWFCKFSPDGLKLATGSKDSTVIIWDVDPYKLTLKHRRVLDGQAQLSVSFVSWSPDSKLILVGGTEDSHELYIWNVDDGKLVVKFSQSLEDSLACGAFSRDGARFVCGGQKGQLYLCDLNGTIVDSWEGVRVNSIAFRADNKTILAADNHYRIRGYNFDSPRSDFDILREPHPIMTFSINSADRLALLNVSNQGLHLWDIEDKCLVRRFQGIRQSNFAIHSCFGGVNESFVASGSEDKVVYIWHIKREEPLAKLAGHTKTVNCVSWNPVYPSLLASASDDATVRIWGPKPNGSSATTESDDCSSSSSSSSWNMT
The assay is described as follows: co-IP; S2 cells transfected with CG7611-GFP and/or Muskelin-Flag; lysates immunoprecipitated with anti-Flag beads or anti-GFP; western blot. In general terms: Immunoblotting shows a protein as a band on a membrane.

These are yes or no findings as the source states them, for the method shown. Binding seen in cells or lysates may run through a third protein. Some entries that bind do so weakly or less than the wild type. Where a sequence is shown, tags or fusion partners need not be part of it.

B1: RanBPM (protein, UniProt Q4Z8K6 1-962)
chain: MENVEEAPPLSSESNSNSNNSSASSSSHQLSQSGAMGAEIAPSTSRSHSHSPTPSPPVPASSHDQPHPDHPSPPLNASETEARENSPHDHSPTPTFHQTAPPPTTSSTAPQRDEREQQQQQEAPPLQQDQQENSPAQDQELHPLLDQQNQEYPAVHQDQQAEQNQELHHIEGLIRHRESQNPEEHPPQASLENRETLGREDTNQEPDEPQVRDPEIEPEAEPPPPLLLEDLDEQDSGSQDLNEQQPPLIIDANAIAETIDANAVERIDDYEDDDEEVDEEEEVVEDRVDRAGEVASVSGAQRLHSVAVLPRYSSASRAPRSSNNNNNNISNHNNNNNNSNSNSLSRRTRHFYSNNGSHFSNDMFPSHNPRSSTQTSSPRVGGRRHHSTPAASSNSPQHQGVDPLRLLYPNVNESETPLPRCWSPHDKCLSIGLSQNNLRVTYKGVGKQHSDAASVRTAYPIPSSCGLYYFEVRIISKGRNGYMGIGLTAQQFRMNRLPGWDKQSYGYHGDDGNSFSSSGNGQTYGPTFTTGDVIGCCVNFVNNTCFYTKNGVDLGIAFRDLPTKLYPTVGLQTPGEEVDANFGQEPFKFDKIVDMMKEMRSNVLRKIDRYPHLLETPENLMNRLVSTYLVHNAFSKTAEAFNGYTNQTFNEDLASIKTRQKIIKLILTGKMSQAIEHTLRSFPGLLENNKNLWFALKCRQFIEMINGADIENVNNKVTATTQTMPTNQTSVIQSTKTFKHSKSGSGNGNVNINQTQQQNNTAIPAVIKPQGGDRPDIKNMLVDDNSNKCVEHDSNSMDVEMEPCQSHSNGGDSSSNGNASAVRNSLDAIDEEMDVDVSPSSRNCGRVIEKILEFGKELSSMGQQLEKENLMTEEERQMLEDAFSLIAYSNPWSSPLGWLLCPSRRESVSTTLNSAILESLNFERRPPLEYLVAHASELIKVIGQHSLGEDAFITIDDVFPQN
Consider B1, for which the binding result is recorded as “binds”.
